Laboratory results from patent US20140011746A1 (WISCONSIN ALUMNI RESEARCH FOUNDATION, published 2014).
These are yes or no findings as the source states them, for the method shown. Binding seen in cells or lysates may run through a third protein. Binding calls can cover weak binding; strength is not graded here.

Target: PI3K
Assay: co-immunoprecipitation from cell lysates

B1: human syndecan-1 (receptor)
chain: QIVATNLPPEDQDGSGDDSDNFSGSGAGALQDITLSQQTPSTWKDTQLLTAIPTSPEPTGLEATAASTSTLPAGEGPKEGEAVVLPEVEPGLTAREQEATPRPRETTQLPTTHQASTTTATTAQEPATSHPHRDMQPGHHETSTPAGPSQADLHTPHTEDGGPSATERAAEDGASSQLPAAEGSGEQDFTFETSGENTAVVAVEPDRRNQSPVDQGATGASQGLLDRKEVLGGVIAGGLVGLIFAVCLVGFMLYRMKKKDEGSYSLEEPKQANGGAYQKPTKQEEFYA
notes: Endogenous Sdc1 of human cells, immunoprecipitated from cell lysates; also called hSdc1; Sdc1
For B1, the binding was “binds”.
